From PMC2111050, “Human RECQ1 Is a DNA Damage Responsive Protein Required for Genotoxic Stress Resistance and Suppression of Sister Chromatid Exchanges” (PLoS ONE, 2007)
No constants are given. Whether binding was seen depends on the method and setting. Binding seen in cells or lysates may run through a third protein. Some results given as binding are weak or reduced against the parent protein; the word gives no strength. Blank lines part the entries; values can stand above or below the substance they belong to.

Chains of the proteins cited; added tags and fusions are not shown. Lines headed by an entry give the natural chain unless they say otherwise; changes in a name come on top.
UniProt P46063: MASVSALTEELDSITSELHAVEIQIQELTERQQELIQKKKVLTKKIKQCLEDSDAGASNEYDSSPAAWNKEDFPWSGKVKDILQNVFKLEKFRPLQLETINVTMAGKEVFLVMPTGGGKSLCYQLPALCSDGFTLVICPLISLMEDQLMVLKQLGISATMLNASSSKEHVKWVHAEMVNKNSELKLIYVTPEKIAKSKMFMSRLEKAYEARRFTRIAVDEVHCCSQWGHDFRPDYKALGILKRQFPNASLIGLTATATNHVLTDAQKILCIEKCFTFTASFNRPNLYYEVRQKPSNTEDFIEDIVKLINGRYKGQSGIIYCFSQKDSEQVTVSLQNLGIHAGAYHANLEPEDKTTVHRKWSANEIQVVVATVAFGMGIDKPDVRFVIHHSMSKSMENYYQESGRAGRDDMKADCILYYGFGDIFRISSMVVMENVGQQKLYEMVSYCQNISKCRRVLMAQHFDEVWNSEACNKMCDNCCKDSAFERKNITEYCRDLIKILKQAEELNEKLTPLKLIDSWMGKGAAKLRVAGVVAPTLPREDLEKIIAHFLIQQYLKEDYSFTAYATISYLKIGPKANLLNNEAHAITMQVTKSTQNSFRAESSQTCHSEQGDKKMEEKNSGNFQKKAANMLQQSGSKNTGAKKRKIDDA
UniProt Q06609: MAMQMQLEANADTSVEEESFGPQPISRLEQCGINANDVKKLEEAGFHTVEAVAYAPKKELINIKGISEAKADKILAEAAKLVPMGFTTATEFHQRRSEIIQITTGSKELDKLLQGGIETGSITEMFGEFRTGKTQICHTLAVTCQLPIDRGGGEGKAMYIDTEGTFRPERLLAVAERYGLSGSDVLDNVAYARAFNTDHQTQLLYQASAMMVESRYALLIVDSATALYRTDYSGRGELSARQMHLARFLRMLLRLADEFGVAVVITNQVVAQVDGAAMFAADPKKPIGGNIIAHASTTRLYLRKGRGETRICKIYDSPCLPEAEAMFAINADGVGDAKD
UniProt P43246: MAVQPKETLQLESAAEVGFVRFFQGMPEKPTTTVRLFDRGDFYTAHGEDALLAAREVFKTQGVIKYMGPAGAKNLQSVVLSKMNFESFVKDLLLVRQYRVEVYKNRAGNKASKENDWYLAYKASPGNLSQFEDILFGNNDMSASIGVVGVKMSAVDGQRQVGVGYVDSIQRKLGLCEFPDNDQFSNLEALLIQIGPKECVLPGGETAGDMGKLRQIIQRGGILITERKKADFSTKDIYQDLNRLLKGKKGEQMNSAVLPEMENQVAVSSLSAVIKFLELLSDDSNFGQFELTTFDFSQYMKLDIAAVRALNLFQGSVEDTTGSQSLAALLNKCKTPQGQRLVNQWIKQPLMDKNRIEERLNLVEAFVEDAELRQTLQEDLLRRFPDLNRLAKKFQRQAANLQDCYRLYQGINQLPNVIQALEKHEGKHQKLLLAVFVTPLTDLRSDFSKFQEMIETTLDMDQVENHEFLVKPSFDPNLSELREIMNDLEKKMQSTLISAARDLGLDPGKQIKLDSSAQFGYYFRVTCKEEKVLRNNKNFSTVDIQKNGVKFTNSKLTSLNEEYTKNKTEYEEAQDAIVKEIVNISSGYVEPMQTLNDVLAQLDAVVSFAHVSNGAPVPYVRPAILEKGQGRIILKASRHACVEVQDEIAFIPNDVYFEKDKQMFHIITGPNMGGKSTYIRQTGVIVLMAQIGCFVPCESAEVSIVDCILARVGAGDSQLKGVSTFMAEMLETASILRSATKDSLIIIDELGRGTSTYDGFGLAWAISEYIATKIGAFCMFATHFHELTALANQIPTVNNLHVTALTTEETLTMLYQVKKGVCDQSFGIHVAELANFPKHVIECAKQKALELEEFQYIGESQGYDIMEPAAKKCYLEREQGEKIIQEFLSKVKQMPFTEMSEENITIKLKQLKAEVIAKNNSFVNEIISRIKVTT

How the values were obtained:
[1] = biological target: Endogenous RECQ1 (human (endogenous in HeLa)) (UniProt P46063); assay: co-IP; RECQ1 immunoprecipitate probed for MSH2/6 and MLH1; data not shown
[2] = biological target: Endogenous RECQ1 (human (endogenous in HeLa)) (UniProt P46063); assay: co-IP; HeLa nuclear extract (1 mg protein) with rabbit polyclonal anti-RECQ1 or mouse monoclonal anti-Rad51, protein G-agarose, buffer D (50 mM HEPES pH 7.5, 100 mM KCl, 10% glycerol), 4°C; washes with 0.1% Tween 20; Western blot
[3] = biological target: Endogenous Rad51 (human (endogenous in HeLa)) (UniProt Q06609); assay: as above

binding [1]: binds
Substance: MSH2/6 (from UniProt P43246 1-934; P52701 1-1360) (complex)

binding [2]: binds
Substance: Endogenous Rad51 (from UniProt Q06609 1-339)

binding [3]: binds
Substance: Endogenous RECQ1 (from UniProt P46063 1-649)
